PubChem BioAssay AID1224828 | NIAID, 2016

Assay: 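Knock-downs that increase or decrease LPS-induced p65 nuclear translocation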 (primary screen)
System: mouse RAW264.7 G9 macrophage reporter cells (GFP-p65, Tnf promoter-mCherry)
Reagent: siRNA pool against mouse genes, 100 nM
Time to read-out: 2 days siRNA transfection, then 40 min LPS before fixation
Challenge: LPS (Salmonella minnesota R595) at 10 ng/ml
Detection: 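Imaged p65 nuclear translocation ratio, normalised to the plate median, converted to robust z-scores and averaged across two replicates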
Reading the numbers: p65 translocation robust z-score: higher = more nuclear NF-kappaB p65 after LPS than the plate median; nuclear/cytoplasmic p65 ratio: higher = more nuclear NF-kappaB p65
Rule for the call: 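Active if robust z is above 3.3 (negative regulators) or below -1.56, the Tlr4 control median (positive regulators); activity score 50 or more; control wells not called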
Calls: active = hit (p65 shift raised or lowered); inactive = no clear change
Shown is an unselected part of about 17,000 reagents. 762 of all reagents (4.5%) count as active. 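Active calls include both raised and lowered p65 entry, mostly lowered; wells with fewer than 50 cells lack a z-score.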 The raw values are shown without normalisation.

What did the screen give for Wdr31?
p65 translocation robust z-score: 0.6; nuclear/cytoplasmic p65 ratio, rep 1: 1.45; nuclear/cytoplasmic p65 ratio, rep 2: 1.36; low cell count flag: enough cells to score; call: inactive

What did the screen give for H2al1m?
nuclear/cytoplasmic p65 ratio, rep 1: 1.5; nuclear/cytoplasmic p65 ratio, rep 2: 1.41; low cell count flag: fewer than 50 cells per well; well left out of scoring; call: inactive

For Crcp, how do the results read?
p65 translocation robust z-score: 0.11; nuclear/cytoplasmic p65 ratio, rep 1: 1.63; nuclear/cytoplasmic p65 ratio, rep 2: 1.76; low cell count flag: enough cells to score; call: inactive

What did the screen give for Zc3h8?
nuclear/cytoplasmic p65 ratio, rep 1: 1.21; nuclear/cytoplasmic p65 ratio, rep 2: 1.17; low cell count flag: fewer than 50 cells per well; well left out of scoring; call: inactive

With P2ry12, what does the deposit list?
p65 translocation robust z-score: -1.54; nuclear/cytoplasmic p65 ratio, rep 1: 1.29; nuclear/cytoplasmic p65 ratio, rep 2: 1.23; low cell count flag: enough cells to score; call: inactive

For Chrdl1, what was measured?
p65 translocation robust z-score: 0.07; nuclear/cytoplasmic p65 ratio, rep 1: 1.6; nuclear/cytoplasmic p65 ratio, rep 2: 1.79; low cell count flag: enough cells to score; call: inactive

With Gm5115, what does the deposit list?
nuclear/cytoplasmic p65 ratio, rep 1: 2.01; nuclear/cytoplasmic p65 ratio, rep 2: 1.96; low cell count flag: fewer than 50 cells per well; well left out of scoring; call: inactive

For Pcdhga10, what does the deposit list?
p65 translocation robust z-score: -0.2; nuclear/cytoplasmic p65 ratio, rep 1: 1.41; nuclear/cytoplasmic p65 ratio, rep 2: 1.23; low cell count flag: enough cells to score; call: inactive

With Or52ac1, how do the results read?
p65 translocation robust z-score: 0.15; nuclear/cytoplasmic p65 ratio, rep 1: 1.44; nuclear/cytoplasmic p65 ratio, rep 2: 1.3; low cell count flag: enough cells to score; call: inactive

Which result is listed for Tslp?
p65 translocation robust z-score: 2.68; nuclear/cytoplasmic p65 ratio, rep 1: 1.51; nuclear/cytoplasmic p65 ratio, rep 2: 1.53; low cell count flag: enough cells to score; call: inactive

For Mrpl36, what does the deposit list?
p65 translocation robust z-score: -0.16; nuclear/cytoplasmic p65 ratio, rep 1: 1.72; nuclear/cytoplasmic p65 ratio, rep 2: 1.6; low cell count flag: enough cells to score; call: inactive

Which result is listed for Or52r1?
nuclear/cytoplasmic p65 ratio, rep 1: 0; nuclear/cytoplasmic p65 ratio, rep 2: 1.28; low cell count flag: fewer than 50 cells per well; well left out of scoring; call: inactive

With Coro6, how do the results read?
p65 translocation robust z-score: 1.54; nuclear/cytoplasmic p65 ratio, rep 1: 1.76; nuclear/cytoplasmic p65 ratio, rep 2: 2.08; low cell count flag: enough cells to score; call: inactive

What did the screen give for Or9k7?
nuclear/cytoplasmic p65 ratio, rep 1: 1.21; nuclear/cytoplasmic p65 ratio, rep 2: 1.36; low cell count flag: fewer than 50 cells per well; well left out of scoring; call: inactive

Which result is listed for 3010003L21Rik?
nuclear/cytoplasmic p65 ratio, rep 1: 1.14; nuclear/cytoplasmic p65 ratio, rep 2: 1.03; low cell count flag: fewer than 50 cells per well; well left out of scoring; call: inactive

What is on record for Or5p52?
nuclear/cytoplasmic p65 ratio, rep 1: 1.31; nuclear/cytoplasmic p65 ratio, rep 2: 1.12; low cell count flag: fewer than 50 cells per well; well left out of scoring; call: inactive

For Plau, how do the results read?
p65 translocation robust z-score: 1.1; nuclear/cytoplasmic p65 ratio, rep 1: 1.58; nuclear/cytoplasmic p65 ratio, rep 2: 1.61; low cell count flag: enough cells to score; call: inactive

What did the screen give for Pon1?
p65 translocation robust z-score: 0.26; nuclear/cytoplasmic p65 ratio, rep 1: 1.54; nuclear/cytoplasmic p65 ratio, rep 2: 1.43; low cell count flag: enough cells to score; call: inactive

With AI593442, how do the results read?
p65 translocation robust z-score: 1.14; nuclear/cytoplasmic p65 ratio, rep 1: 1.8; nuclear/cytoplasmic p65 ratio, rep 2: 1.84; low cell count flag: enough cells to score; call: inactive

What is on record for Timp4?
p65 translocation robust z-score: 0.4; nuclear/cytoplasmic p65 ratio, rep 1: 1.56; nuclear/cytoplasmic p65 ratio, rep 2: 1.59; low cell count flag: enough cells to score; call: inactive

For Tsc22d4, what was measured?
p65 translocation robust z-score: 0.2; nuclear/cytoplasmic p65 ratio, rep 1: 1.64; nuclear/cytoplasmic p65 ratio, rep 2: 1.51; low cell count flag: enough cells to score; call: inactive

Just “nuclear/cytoplasmic p65 ratio, rep 1” (3 entries from above):
Or52ac1 = 1.44
Tslp = 1.51
Mrpl36 = 1.72
